Values of other authors in patent US20190192601A1, “EXTRACTS OF CYCLANTHERA PEDATA AND FORMULATIONS AND USES THEREOF” (priority 2014, published 2019).
At least one structure is not confirmed: it was looked up by name or label, or the drawing left a doubt.

How the values were obtained:
[1] = system: men and women with a history of angina or heart attack; details: 4,444 men and women over 5.4 years
[2] = system: men and women with a recent history of heart attack; details: 4,158 men and women
[3] = system: monkeys who had been fed an atherogenic diet

## CCC(C)(C)C(=O)O[C@H]1C[C@@H](C)C=C2C=C[C@H](C)[C@H](CC[C@@H]3C[C@@H](O)CC(=O)O3)[C@H]21 [simvastatin]
[1]
  lowering LDL: effective at lowering LDL

## CC[C@H](C)C(=O)O[C@H]1C[C@H](O)C=C2C=C[C@H](C)[C@H](CC[C@@H](O)C[C@@H](O)CC(=O)O)[C@H]21 [pravastatin]
[2]
  lowering of LDL cholesterol: 28%
  lowering of heart attacks: 25%
  lowering of strokes: 28%

## CCOC(=O)C1=C(COCCN)NC(C)=C(C(=O)OC)C1c1ccccc1Cl (stereo not drawn) [Amlodipine]
[3]; monkey, in vivo
  elevated levels of oxidized LDL cholesterol: normalize
[3]; monkeys fed an atherogenic diet, initial results
  atherosclerosis progression: suppressed
